Assay results published in US20080090770A1, “Modulation of Muc1 Mediated Signal Transduction” (priority 2003, published 2008).
Results are given in words; binding and its absence hold for the method and conditions named. Some results given as binding are weak or reduced against the parent protein; the word gives no strength.

The chains behind the UniProt entries cited, without tags or fusion partners. Residues count along the entry.
UniProt P26045, residues 510-582: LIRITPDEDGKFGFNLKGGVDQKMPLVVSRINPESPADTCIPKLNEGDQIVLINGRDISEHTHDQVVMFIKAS
UniProt P15941, residues 1184-1255: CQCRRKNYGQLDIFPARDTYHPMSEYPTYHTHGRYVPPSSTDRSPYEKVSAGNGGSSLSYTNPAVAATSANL

Key:
[1] = molecular target: T1, HtrA2 (high temperature requirement protein A2) (human) (UniProt O43464); test: PDZ array membrane, 80 ng/spot, no 7-mer peptide
T1 sequence (looked up): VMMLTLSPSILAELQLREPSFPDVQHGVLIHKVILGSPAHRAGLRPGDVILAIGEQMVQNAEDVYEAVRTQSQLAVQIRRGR

[2] = molecular target: T2, Mint-1 d2 (XII protein, PDZ domain #2) (human) (UniProt Q02410); test: PDZ array membrane, 80 ng/spot, no 7-mer peptide
T2 sequence (looked up): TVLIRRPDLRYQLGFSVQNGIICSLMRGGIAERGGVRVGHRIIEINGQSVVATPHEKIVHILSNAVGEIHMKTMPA

Mint-3 d1 (human) [3] = molecular target: T3, Mint-3 d1 (human) (UniProt O96018); test: PDZ array membrane, 80 ng/spot, no 7-mer peptide
T3 sequence (looked up): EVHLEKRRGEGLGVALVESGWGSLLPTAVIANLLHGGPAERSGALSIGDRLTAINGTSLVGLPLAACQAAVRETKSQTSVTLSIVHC

[4] = molecular target: T1, HtrA2 (high temperature requirement protein A2) (human); test: PDZ array membrane, 400 ng/spot, no 7-mer peptide
[5] = molecular target: T2, Mint-1 d2 (XII protein, PDZ domain #2) (human); test: PDZ array membrane, 400 ng/spot, no 7-mer peptide
Mint-3 d1 (human) [6] = molecular target: T3, Mint-3 d1 (human); test: PDZ array membrane, 400 ng/spot, no 7-mer peptide
[7] = molecular target: PTPH1 (protein-tyrosine phosphatase H1) (human) (UniProt P26045); test: PDZ array membrane, 400 ng/spot, no 7-mer peptide
[8] = molecular target: T1, HtrA2 (high temperature requirement protein A2) (human); test: TransSignal PDZ Domain Array membrane, bacterial extract, anti-His HRP
[9] = molecular target: T2, Mint-1 d2 (XII protein, PDZ domain #2) (human); test: as above
[10] = molecular target: T4, OMP25 (mitochondrial outer membrane protein 25) (human) (UniProt P57105); test: as above
T4 sequence (looked up): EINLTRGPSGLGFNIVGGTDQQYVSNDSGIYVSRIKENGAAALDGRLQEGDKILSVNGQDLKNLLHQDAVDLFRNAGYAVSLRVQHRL

[11] = molecular target: PTPH1 (protein-tyrosine phosphatase H1) (human) (UniProt P26045); test: as above
[12] = molecular target: T5, RIL (reversion-induced LIM protein) (human) (UniProt P50479); test: as above
T5 sequence (looked up): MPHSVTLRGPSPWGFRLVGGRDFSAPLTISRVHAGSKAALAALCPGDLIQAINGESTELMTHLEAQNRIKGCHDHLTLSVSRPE

Measured: binding

His-tagged MUC1/CD (from UniProt P15941 1184-1255)
binds: all assays above
